The source of these data is article PMC11436757, “BRCA2 stabilises RAD51 and DMC1 nucleoprotein filaments through a conserved interaction mode” (Nature Communications, 2024).

Assay [1] addresses T1, MBP-BRCA2 Ex14-Tr (human).
T1 sequence: RPTKVFVPPFKTKS
Briefly: pull-down; amylose pull-down after recombinant co-expression of the recombinase with MBP-BRCA2 fragments in E. coli.

The target of assay [2] is T1, MBP-BRCA2 Ex14-Tr (human). Briefly: pull-down; lysates of bacterial cultures expressing His6-DMC1 ΔN mutants or MBP-BRCA2 constructs mixed; amylose affinity in 20 mM Tris pH 8.0, 500 mM KCl, 2 mM DTT; eluted with 30 mM D-maltose.
Assay [3] has as its target His-DMC1 ΔN F85E mutant (human) (UniProt Q14565). Briefly: SEC-MALS; Superdex 200 Increase 10/300 GL, 20 mM Tris pH 8.0, 500 mM KCl, 10 % glycerol, 2 mM DTT; both purified.

Numbering of substitutions follows the chain as printed. In names and notes the source's numbering stands. Results are given in words; binding and its absence hold for the method and conditions named. For part of these data: Binding seen in cells or lysates may run through a third protein. Some entries that bind do so weakly or less than the wild type. Where a sequence is shown, tags or fusion partners need not be part of it.

B1: DMC1 ΔN co-expressed with MBP-BRCA2 fragments (domain or fragment, UniProt Q14565 83-340)
chain: PGFLTAFEYSEKRKMVFHITTGSQEFDKLLGGGIESMAITEAFGEFRTGKTQLSHTLCVTAQLPGAGGYPGGKIIFIDTENTFRPDRLRDIADRFNVDHDAVLDNVLYARAYTSEHQMELLDYVAAKFHEEAGIFKLLIIDSIMALFRVDFSGRGELAERQQKLAQMLSRLQKISEEYNVAVFVTNQMTADPGATMTFQADPKKPIGGHILAHASTTRISLRKGRGELRIAKIYDSPEMPENEATFAITAGGIGDAKE
Turning to B1, the binding result in assay [1] is recorded as “binds”.

B2: His-DMC1 ΔN F85E mutant (domain or fragment, UniProt Q14565 83-340)
chain: B1 chain with F3E
Take B2: the binding entry in assay [2] and in assay [3] was “no binding” each time.
